Source: PubChem BioAssay AID540256 (National Center for Advancing Translational Sciences (NCATS), 2011)
The whole screen tested about 300,000 compounds, of which about 3,700 (1.2%) were called active. The inconclusive results got no clear call from the source; some entries with a clear call stand among them for comparison. Calls come from the whole dose curve; tested in HEK293 cells. A potency beside an inconclusive call is a rough fit, not a confirmed value.

Test: qHTS for Inhibitors of binding or entry into cells for Lassa Virus; note: nearly all actives have a fitted effect of over 50% in size
Conditions: Lassa virus pseudotype entry inhibition, cell reporter; activity change, negative = inhibition: at 37.9 µM (top of the series) unless noted
% is set by controls: 0 for no effect and ±100 for the full control effect; potency is the fitted concentration of half-maximal effect.

SMILES | Potency | activity change, negative = inhibition
Cc1nn(CCCC(=O)Nc2cc(Oc3ccc(F)cc3)cc([N+](=O)[O-])c2)c(C)c1[N+](=O)[O-] | inconclusive: 11.2 µM [inhibitor, partial curve] | 
CCOC(=O)c1cccc(NC(=O)c2ccc3snnc3c2)c1 | inconclusive: 35.5 µM [activator, single point] | 
N/C(=N\OC(=O)C12CC3CC(CC(C3)C1)C2)c1ccncc1 |  | inactive: 14%
S=C(NCCN1CCOCC1)Nc1ccc(Br)cc1 | inconclusive: 18.4 µM [activator, partial curve, poor fit] | 
COc1ccccc1N1CCN(C(=O)C2CCCN(S(=O)(=O)c3ccc4c(c3)oc(=O)n4C)C2)CC1 (stereo not drawn) | inconclusive: 11.2 µM [inhibitor, single point] | 
N#C/C(=N\Nc1ccc(Cl)c(Cl)c1)C(=O)C1CC1 | inconclusive: 35.5 µM [inhibitor, single point] | 
COC(=O)c1ccc(NC(=O)C2CCCN(S(C)(=O)=O)C2)cc1 (stereo not drawn) | inconclusive: 4.11 µM [activator, full curve, poor fit] | 
CCCc1ccc2oc(C(=O)N3CCC(COC)C3)c(C)c2c1 (stereo not drawn) | inconclusive: 35.5 µM [inhibitor, single point] | 
CSC1=NSC2=NC(=O)/C(=C/c3coc4ccc(O)cc4c3=O)C(=N)N12 |  | inactive: 14%
O=C1S/C(=C\C=C\c2ccco2)C(=O)N1c1ccc(O)cc1 | inconclusive: 29.1 µM [inhibitor, single point] | 
O=C(Nc1ccc2c(c1)OCCO2)N1CCN(c2ccc(F)cc2)CC1 |  | inactive: -1.1%
COc1ccc(OC)c2c(=O)cc(C(=O)O)[nH]c12 |  | inactive: 6.99%
COc1cc2c(cc1NC(=S)Nc1cccc(C)c1)oc1ccccc12 |  | inactive: 1.15%
CCOC(=O)c1c(C)oc2ccc(OCc3cc(C(=O)OC)oc3C)cc12 | inconclusive: 25.1 µM [inhibitor, single point] | 
COc1cccc2sc(Nc3nc(C)c(C(C)=O)s3)nc12 | inconclusive: 29.1 µM [inhibitor, single point] | 
O=C(COC(=O)/C=C/c1cccs1)Nc1nc(-c2cccc(Br)c2)cs1 | inconclusive: 25.1 µM [inhibitor, single point] | 
Cc1cccnc1NC(=O)c1cccc(S(=O)(=O)NCc2ccccc2)c1 |  | inactive: 5.49%
CC(OC(=O)CCc1nc2ccccc2c(=O)[nH]1)C(=O)c1ccc(C(C)(C)C)cc1 (stereo not drawn) |  | inactive: 8.61%
CCc1ccc(C(=O)/C=C/c2cnn(C)c2C)s1 |  | inactive: 29.6%
COc1ccc(NC(=O)COc2ccc(N(C)S(=O)(=O)c3ccc(C)cc3)cc2)cc1 |  | inactive: -5.4%
Cc1nn(-c2ccccc2)c(Cl)c1C(=O)NCC(C)C | inconclusive: 6.31 µM [inhibitor, single point] | 
COc1ccccc1CC(=O)Nc1ccc(S(=O)(=O)N2CCOCC2)cc1 | inconclusive: 11.2 µM [inhibitor, partial curve] | 
Cc1ccc(NC(=O)CC2Sc3ccccc3NC2=O)c(Br)c1 (stereo not drawn) | inconclusive: 5.62 µM [inhibitor, single point] | 

SMILES | Potency | activity change, negative = inhibition
Nc1nnc(SCC(=O)N2CCc3ccccc3C2)s1 | inconclusive: 10 µM [activator, partial curve, poor fit] | 
CCOc1ccc(CCNC(=O)c2cc3c(=O)n(C)c4ccccc4c3n2C)cc1 | inconclusive: 1.78 µM [inhibitor, partial curve, poor fit] | 
O=c1[nH]c2ccc(NCc3ccccc3F)cc2[nH]1 |  | inactive: 20.1% [at 46.1 µM]
COCCCN1CC(=O)N2C(c3ccccc3)c3[nH]c4ccccc4c3C[C@H]2C1=O (stereo partly drawn) | inconclusive: 3.16 µM [activator, single point] | 
COc1ccc(OCCCC(=O)N(CCC2=CCCCC2)c2c(N)n(Cc3ccccc3)c(=O)[nH]c2=O)cc1 | inconclusive: 14.1 µM [inhibitor, single point] | 
Cc1ccc(Nc2nc(N)nc(CSc3nnc(-c4ccncc4)o3)n2)cc1 |  | inactive: 24.5%
Cc1ccc(S(=O)(=O)Nc2ccc3c(c2)c2c(n3S(=O)(=O)c3ccc(C)cc3)CCCC2=O)cc1 | inconclusive: 3.55 µM [inhibitor, full curve, poor fit] | 
CN1CCC(Oc2ccccc2Sc2ccccc2)CC1 | active: 8.2 µM | 
COc1cc(NC(=O)Cc2ccc(OC)c(S(=O)(=O)N3CCOCC3)c2)c(OC)cc1Cl |  | inactive: -22.9%
C/C(=N\Nc1nc(-c2cc(C)ccc2C)cs1)c1cc2ccccc2oc1=O |  | inactive: 2.08%
COc1ccc(-c2noc(CCC(=O)N3CCN(c4cccc(C(F)(F)F)c4)CC3)n2)cc1 | inconclusive: 35.5 µM [inhibitor, single point] | 
CCN(Cc1ccc(Cl)s1)C(=O)c1cccc(OCc2c(C)noc2C)c1 | inconclusive: 17.8 µM [inhibitor, single point] | 
COc1cccc(OC)c1OCc1cc(C2C3CCCC=C3C(C#N)=C(N)C2(C#N)C#N)c(C)cc1C (stereo not drawn) | active: 20 µM | 
CCn1c(SC)nnc1-c1sc2cc(Cl)ccc2c1Cl |  | inactive: 19.9%
Cc1ncc(S(=O)(=O)c2ccccc2)c(-c2ccc(Cl)cc2Cl)n1 | inconclusive: 7.08 µM [inhibitor, full curve] | 
CCN(CC)S(=O)(=O)c1ccc2c(c1)N(CC(=O)Nc1c(C)cc(C)cc1C)C(=O)C1CCCN21 (stereo not drawn) |  | inactive: 2.7% [at 46.1 µM]
CCOc1ccccc1NC(=O)C(OC(=O)c1ccc(N(C)C)cc1)c1ccccc1 (stereo not drawn) | inconclusive: 10 µM [inhibitor, partial curve, poor fit] | 
CCOC(=O)C(Cc1cc(C(C)=O)ccc1OCC)C(=O)OCC |  | inactive: -0.973%
Cc1ccc(CNC(=O)CN2CCCN(Cc3ccc(F)cc3)S2(=O)=O)cc1 | active: 11.2 µM | 
CSc1ccc(CN2CCc3c([nH]c4ccccc34)C2)cc1 | inconclusive: 35.5 µM [inhibitor, single point] | 
COc1ccc(-c2cc(C(F)(F)F)nc(NC3CCCC3)n2)cc1OC | inconclusive: 16.4 µM [inhibitor, partial curve] | 
CCOC(=O)c1cccc(NC(=O)c2cnc(N3CCCCC3)c3ccccc23)c1 | inconclusive: 31.6 µM [inhibitor, partial curve, poor fit] | 
COc1ccc(Cl)cc1S(=O)(=O)N1CCCC(C(=O)NCCc2ccccc2)C1 (stereo not drawn) | inconclusive: 4.47 µM [activator, full curve, poor fit] | 

Gathered by group, the entries above containing a halogen.
SMILES | Potency | activity change, negative = inhibition
Cc1nn(CCCC(=O)Nc2cc(Oc3ccc(F)cc3)cc([N+](=O)[O-])c2)c(C)c1[N+](=O)[O-] | inconclusive: 11.2 µM [inhibitor, partial curve] | 
S=C(NCCN1CCOCC1)Nc1ccc(Br)cc1 | inconclusive: 18.4 µM [activator, partial curve, poor fit] | 
N#C/C(=N\Nc1ccc(Cl)c(Cl)c1)C(=O)C1CC1 | inconclusive: 35.5 µM [inhibitor, single point] | 
O=C(Nc1ccc2c(c1)OCCO2)N1CCN(c2ccc(F)cc2)CC1 |  | inactive: -1.1%
O=C(COC(=O)/C=C/c1cccs1)Nc1nc(-c2cccc(Br)c2)cs1 | inconclusive: 25.1 µM [inhibitor, single point] | 
Cc1nn(-c2ccccc2)c(Cl)c1C(=O)NCC(C)C | inconclusive: 6.31 µM [inhibitor, single point] | 
Cc1ccc(NC(=O)CC2Sc3ccccc3NC2=O)c(Br)c1 (stereo not drawn) | inconclusive: 5.62 µM [inhibitor, single point] | 
O=c1[nH]c2ccc(NCc3ccccc3F)cc2[nH]1 |  | inactive: 20.1% [at 46.1 µM]
COc1cc(NC(=O)Cc2ccc(OC)c(S(=O)(=O)N3CCOCC3)c2)c(OC)cc1Cl |  | inactive: -22.9%
COc1ccc(-c2noc(CCC(=O)N3CCN(c4cccc(C(F)(F)F)c4)CC3)n2)cc1 | inconclusive: 35.5 µM [inhibitor, single point] | 
CCN(Cc1ccc(Cl)s1)C(=O)c1cccc(OCc2c(C)noc2C)c1 | inconclusive: 17.8 µM [inhibitor, single point] | 
CCn1c(SC)nnc1-c1sc2cc(Cl)ccc2c1Cl |  | inactive: 19.9%
Cc1ncc(S(=O)(=O)c2ccccc2)c(-c2ccc(Cl)cc2Cl)n1 | inconclusive: 7.08 µM [inhibitor, full curve] | 
Cc1ccc(CNC(=O)CN2CCCN(Cc3ccc(F)cc3)S2(=O)=O)cc1 | active: 11.2 µM | 
COc1ccc(-c2cc(C(F)(F)F)nc(NC3CCCC3)n2)cc1OC | inconclusive: 16.4 µM [inhibitor, partial curve] | 
COc1ccc(Cl)cc1S(=O)(=O)N1CCCC(C(=O)NCCc2ccccc2)C1 (stereo not drawn) | inconclusive: 4.47 µM [activator, full curve, poor fit] | 

Additional records

SMILES | Potency | activity change, negative = inhibition
CN(Cc1cccc(F)c1)C(=O)CSc1nnc(C2CC2)n1C1CC1 | inconclusive: 35.5 µM [inhibitor, single point] | 
CNC(=O)CN1C(=O)c2cccc3cccc1c23 |  | inactive: 5.43%
Clc1ccc(C2CC(c3cccs3)n3ncnc3N2)cc1 (stereo not drawn) | inconclusive: 12.6 µM [inhibitor, partial curve] | 
CCN(CC)CCNC(=O)CNC(=S)N(CCCN1CCOCC1)Cc1cccs1 | inconclusive: 11.2 µM [inhibitor, partial curve, poor fit] | 
COc1ccc(NC(=O)CSc2n[nH]c(C(C)C)n2)c([N+](=O)[O-])c1 | inconclusive: 12.6 µM [inhibitor, partial curve, poor fit] | 
COc1ccc(NS(=O)(=O)c2cc(NC(=O)/C=C/c3cccs3)ccc2N2CCOCC2)cc1 | inconclusive: 15.8 µM [inhibitor, single point] | 
COc1ccc(N(C)S(=O)(=O)c2ccc(C)cc2)c([N+](=O)[O-])c1 | active: 12.6 µM | 
CCN(Cc1ccccc1)C(=O)Cn1c(=O)oc2cc(S(=O)(=O)N3CCCCCC3)ccc21 | inconclusive: 35.5 µM [inhibitor, single point] | 
Cc1ccc(C)c(N2CCN(C(c3ccc(F)cc3)c3nnc(-c4ccccc4)o3)CC2)c1 (stereo not drawn) | inconclusive: 35.5 µM [inhibitor, partial curve, poor fit] | 
Cn1/c(=N/NC(=O)c2ccccc2F)sc2ccccc21 | inconclusive: 35.5 µM [activator, partial curve, poor fit] | 
COc1ccc(OC)c(NC(=O)c2sc3nc4c(cc3c2N)CCCCCC4)c1 |  | inactive: 10.7% [at 46.1 µM]
Cc1ccc(S(=O)(=O)c2c(C)cc(-c3ccccc3)[nH]c2=O)cc1 |  | inactive: -6%
Cc1noc2ncnc(NCc3ccccc3Cl)c12 | inconclusive: 6.31 µM [activator, single point] | 
Cc1cc(NC(=O)c2cc3ccccc3o2)cc(C)c1OCC(=O)N1CCOCC1 | inconclusive: 32.6 µM [inhibitor, single point] | 
CCN(CC)CCOc1ccc2c(c1)C(=NNC(=O)c1ccccn1)c1cc(OCCN(CC)CC)ccc1-2 | inconclusive: 20.6 µM [inhibitor, partial curve, poor fit] | 
Cc1ccc(N(CC(=O)N2CCN(c3cc(Cl)ccc3C)CC2)S(=O)(=O)c2c(C)noc2C)cc1 | inconclusive: 3.55 µM [inhibitor, partial curve, poor fit] | 
COc1cc(SC)ccc1C(=O)NC1CCCc2ccccc21 (stereo not drawn) | inconclusive: 6.31 µM [inhibitor, single point] | 
CC(=O)c1ccc(NC(=O)/C=C/c2ccc(C)cc2)cc1 |  | inactive: 2.45%
CC(=O)Nc1cccc(/C(C)=N/Nc2nc3ccccc3s2)c1 | inconclusive: 0.794 µM [inhibitor, partial curve, poor fit] | 
Clc1ccc(-c2nc3ccccn3c2Nc2ccc3c(c2)OCCO3)s1 |  | inactive: -12.4% [at 46.1 µM]
CCOC(=O)N/N=C\C=C\c1ccco1 | inconclusive: 12.6 µM [inhibitor, partial curve, poor fit] | 
Cn1cnc([N+](=O)[O-])c1S(=O)(=O)Oc1cccc2ccccc12 | inconclusive: 5.62 µM [inhibitor, single point] | 
